PubChem BioAssay AID602196 – INSERM, 2012

Purpose: 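Knock-downs that protect lung cancer cells from cisplatin or sensitise them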
Cell system: human A549 lung cancer cells
Reagents: siRNA pair against human genes
Time to read-out: 48 h transfection before cisplatin; time from cisplatin to read-out not stated
Treatment: cisplatin at a dose killing half of control-siRNA cells; exact dose and duration not given
Detection: 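Shift in cisplatin death relative to control siRNA, from -50 (all cells die) to +50 (no cells die); siRNAs harmful on their own scored 0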
Direction: two-siRNA summed score (-2 to +2): higher = both siRNAs protect from cisplatin killing; -2 means both sensitise
Hit rule: 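siRNAs harmful alone (LDH or WST-1) get 0; others get +1 for less and -1 for more cisplatin killing; genes are active when the two siRNAs give the same sign, summing to ±2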
Meaning of the calls: active = both siRNAs shift cisplatin killing the same way; inactive = no consistent shift, or siRNA harmful alone
This is one part, drawn at random, of about 23,000 reagents. 455 of all reagents (2%) were called active. 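Active includes both protection and sensitisation; some change values fall well beyond the stated -50 to +50 range.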 Further read-outs or replicates are left out here. The record does not give: the amount of reagent.

What is on record for LOC400782?
two-siRNA summed score (-2 to +2): 0; outcome: inactive

With CTSZ, what was measured?
two-siRNA summed score (-2 to +2): -1; outcome: inactive

With SOS2, how do the results read?
two-siRNA summed score (-2 to +2): 0; outcome: inactive

For HEXIM1, how do the results read?
two-siRNA summed score (-2 to +2): 0; outcome: inactive

With AMPD1, what does the deposit list?
two-siRNA summed score (-2 to +2): 2; outcome: active

What is on record for ACTR3?
two-siRNA summed score (-2 to +2): 0; outcome: inactive

For MKLN1, what was measured?
two-siRNA summed score (-2 to +2): 0; outcome: inactive

What did the screen give for LOC440915?
two-siRNA summed score (-2 to +2): 0; outcome: inactive

For STEAP4, what was measured?
two-siRNA summed score (-2 to +2): 0; outcome: inactive

What is on record for FBXO38?
two-siRNA summed score (-2 to +2): 1; outcome: inactive

What is on record for PPEF1?
two-siRNA summed score (-2 to +2): 0; outcome: inactive

With LOC402578, what was measured?
two-siRNA summed score (-2 to +2): 0; outcome: inactive

For EPO, how do the results read?
two-siRNA summed score (-2 to +2): 0; outcome: inactive

Which result is listed for MGC34829?
two-siRNA summed score (-2 to +2): 1; outcome: inactive

Which result is listed for C1orf220?
two-siRNA summed score (-2 to +2): 0; outcome: inactive

For TRMT2B, how do the results read?
two-siRNA summed score (-2 to +2): 0; outcome: inactive

Which result is listed for CLTA?
two-siRNA summed score (-2 to +2): 0; outcome: inactive

With OR56B1, what was measured?
two-siRNA summed score (-2 to +2): 0; outcome: inactive

How did the screen score HES7?
two-siRNA summed score (-2 to +2): 0; outcome: inactive

For LOC441108, what does the deposit list?
two-siRNA summed score (-2 to +2): 1; outcome: inactive

With SCTR, what was measured?
two-siRNA summed score (-2 to +2): -1; outcome: inactive

With TRADD, how do the results read?
two-siRNA summed score (-2 to +2): 0; outcome: inactive

How did the screen score SEC24D?
two-siRNA summed score (-2 to +2): 1; outcome: inactive

With KIF2A, what was measured?
two-siRNA summed score (-2 to +2): 0; outcome: inactive

For CCDC90B, what does the deposit list?
two-siRNA summed score (-2 to +2): 0; outcome: inactive

For LOC389415, how do the results read?
two-siRNA summed score (-2 to +2): 0; outcome: inactive

An excerpt taken from the entries so far, for reference:
STEAP4 | two-siRNA summed score (-2 to +2): 0; outcome: inactive
FBXO38 | two-siRNA summed score (-2 to +2): 1; outcome: inactive
PPEF1 | two-siRNA summed score (-2 to +2): 0; outcome: inactive
LOC402578 | two-siRNA summed score (-2 to +2): 0; outcome: inactive
EPO | two-siRNA summed score (-2 to +2): 0; outcome: inactive
MGC34829 | two-siRNA summed score (-2 to +2): 1; outcome: inactive

Next reagents follow:
How did the screen score LOC440462?
two-siRNA summed score (-2 to +2): 1; outcome: inactive

What did the screen give for ANKRD19P?
two-siRNA summed score (-2 to +2): 1; outcome: inactive

What is on record for LINC00691?
two-siRNA summed score (-2 to +2): 0; outcome: inactive

With RNF13, how do the results read?
two-siRNA summed score (-2 to +2): -1; outcome: inactive

With HLF, what was measured?
two-siRNA summed score (-2 to +2): 1; outcome: inactive

How did the screen score ZNF296?
two-siRNA summed score (-2 to +2): 0; outcome: inactive

For SLC28A1, how do the results read?
two-siRNA summed score (-2 to +2): 0; outcome: inactive

With OR51I1, what does the deposit list?
two-siRNA summed score (-2 to +2): 0; outcome: inactive

For LEPROTL1, what does the deposit list?
two-siRNA summed score (-2 to +2): 0; outcome: inactive

For KIF9, how do the results read?
two-siRNA summed score (-2 to +2): -1; outcome: inactive

What did the screen give for GDPD5?
two-siRNA summed score (-2 to +2): 0; outcome: inactive

For LOC389628, what was measured?
two-siRNA summed score (-2 to +2): 0; outcome: inactive

For DEDD2, how do the results read?
two-siRNA summed score (-2 to +2): 0; outcome: inactive

Which result is listed for LOC134466?
two-siRNA summed score (-2 to +2): 0; outcome: inactive
